Measurements as given in the supplement of paper PMC6411743.
± gives the standard deviation of the averaged measurements. The list shows a part of the results, in another mix than the full data.

Protein sequences, listed by entry. Tags and fused reporters are not part of them. Lines headed by an entry give the natural chain unless they say otherwise; changes in a name come on top.
UniProt Q96PZ0: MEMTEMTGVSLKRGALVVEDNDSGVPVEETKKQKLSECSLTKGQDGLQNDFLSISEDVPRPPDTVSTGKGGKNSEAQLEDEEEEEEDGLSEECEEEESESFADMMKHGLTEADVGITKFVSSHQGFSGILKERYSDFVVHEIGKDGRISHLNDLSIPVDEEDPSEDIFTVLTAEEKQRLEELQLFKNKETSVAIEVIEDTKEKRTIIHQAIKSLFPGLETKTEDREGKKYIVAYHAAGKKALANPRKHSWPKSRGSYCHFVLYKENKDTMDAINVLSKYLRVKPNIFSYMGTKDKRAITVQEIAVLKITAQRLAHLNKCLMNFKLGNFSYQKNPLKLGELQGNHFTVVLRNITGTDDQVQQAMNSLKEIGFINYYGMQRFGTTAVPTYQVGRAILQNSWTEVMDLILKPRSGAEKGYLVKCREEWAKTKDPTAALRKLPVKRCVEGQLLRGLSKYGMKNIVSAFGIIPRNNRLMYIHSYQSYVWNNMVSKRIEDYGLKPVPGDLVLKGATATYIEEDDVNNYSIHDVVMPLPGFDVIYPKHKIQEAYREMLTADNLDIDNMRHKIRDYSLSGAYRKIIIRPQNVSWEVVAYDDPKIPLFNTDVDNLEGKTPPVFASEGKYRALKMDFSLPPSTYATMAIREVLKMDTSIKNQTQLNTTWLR
UniProt Q96EK6: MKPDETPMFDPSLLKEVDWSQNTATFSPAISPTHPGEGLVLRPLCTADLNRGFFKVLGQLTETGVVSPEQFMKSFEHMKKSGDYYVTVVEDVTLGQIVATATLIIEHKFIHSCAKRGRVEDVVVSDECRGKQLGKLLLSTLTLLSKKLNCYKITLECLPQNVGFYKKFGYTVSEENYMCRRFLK
UniProt Q96JG6: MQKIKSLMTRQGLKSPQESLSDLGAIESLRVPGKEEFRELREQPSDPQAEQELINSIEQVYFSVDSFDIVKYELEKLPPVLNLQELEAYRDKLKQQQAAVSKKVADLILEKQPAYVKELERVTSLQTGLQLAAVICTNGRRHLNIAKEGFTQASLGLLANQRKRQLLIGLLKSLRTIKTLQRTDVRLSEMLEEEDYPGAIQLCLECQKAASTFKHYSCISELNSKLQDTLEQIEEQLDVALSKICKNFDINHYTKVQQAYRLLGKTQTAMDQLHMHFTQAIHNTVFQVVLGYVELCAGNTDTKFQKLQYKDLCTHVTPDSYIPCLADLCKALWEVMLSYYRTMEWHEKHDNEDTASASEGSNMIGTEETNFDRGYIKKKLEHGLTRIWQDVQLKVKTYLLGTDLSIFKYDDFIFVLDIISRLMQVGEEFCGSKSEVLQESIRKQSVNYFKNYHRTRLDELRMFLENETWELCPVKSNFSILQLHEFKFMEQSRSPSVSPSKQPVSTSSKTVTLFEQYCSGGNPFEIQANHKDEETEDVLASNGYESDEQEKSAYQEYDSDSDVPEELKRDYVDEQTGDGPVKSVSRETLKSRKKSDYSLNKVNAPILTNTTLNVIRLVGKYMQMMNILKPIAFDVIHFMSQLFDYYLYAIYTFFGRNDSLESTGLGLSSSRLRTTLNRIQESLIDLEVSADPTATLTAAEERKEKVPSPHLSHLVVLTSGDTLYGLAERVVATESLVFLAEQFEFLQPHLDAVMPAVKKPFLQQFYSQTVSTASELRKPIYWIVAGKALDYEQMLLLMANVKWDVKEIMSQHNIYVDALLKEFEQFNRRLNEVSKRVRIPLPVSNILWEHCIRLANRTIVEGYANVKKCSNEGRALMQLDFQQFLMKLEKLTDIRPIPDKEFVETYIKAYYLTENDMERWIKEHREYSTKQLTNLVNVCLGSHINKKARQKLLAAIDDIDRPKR
UniProt Q96KR1: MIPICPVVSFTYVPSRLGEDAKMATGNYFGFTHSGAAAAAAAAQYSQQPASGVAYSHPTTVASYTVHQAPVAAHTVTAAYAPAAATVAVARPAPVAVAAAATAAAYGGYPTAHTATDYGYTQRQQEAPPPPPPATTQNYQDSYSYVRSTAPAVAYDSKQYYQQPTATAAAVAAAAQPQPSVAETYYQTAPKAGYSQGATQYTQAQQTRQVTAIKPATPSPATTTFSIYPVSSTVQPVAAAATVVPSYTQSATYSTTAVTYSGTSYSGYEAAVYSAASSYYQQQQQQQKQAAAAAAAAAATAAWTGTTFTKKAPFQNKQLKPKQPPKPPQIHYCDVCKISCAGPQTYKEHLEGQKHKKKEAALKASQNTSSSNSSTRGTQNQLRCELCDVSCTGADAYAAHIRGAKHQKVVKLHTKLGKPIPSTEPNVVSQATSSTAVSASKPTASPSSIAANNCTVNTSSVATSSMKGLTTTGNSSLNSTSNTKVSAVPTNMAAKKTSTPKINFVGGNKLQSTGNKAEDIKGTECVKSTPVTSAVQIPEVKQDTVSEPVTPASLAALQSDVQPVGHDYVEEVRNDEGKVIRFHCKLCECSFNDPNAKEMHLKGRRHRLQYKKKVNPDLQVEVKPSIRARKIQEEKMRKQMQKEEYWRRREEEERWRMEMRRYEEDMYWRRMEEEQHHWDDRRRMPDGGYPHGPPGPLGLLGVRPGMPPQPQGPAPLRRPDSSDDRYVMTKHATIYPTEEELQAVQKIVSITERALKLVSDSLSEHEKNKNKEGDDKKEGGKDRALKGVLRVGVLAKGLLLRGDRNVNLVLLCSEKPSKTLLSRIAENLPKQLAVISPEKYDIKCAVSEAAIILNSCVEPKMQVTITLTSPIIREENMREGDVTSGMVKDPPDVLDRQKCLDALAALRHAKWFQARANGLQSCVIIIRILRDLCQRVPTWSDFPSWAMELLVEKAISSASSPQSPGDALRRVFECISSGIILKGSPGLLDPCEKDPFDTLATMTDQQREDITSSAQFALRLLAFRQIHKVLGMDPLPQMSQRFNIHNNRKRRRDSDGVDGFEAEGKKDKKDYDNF
UniProt Q96N66: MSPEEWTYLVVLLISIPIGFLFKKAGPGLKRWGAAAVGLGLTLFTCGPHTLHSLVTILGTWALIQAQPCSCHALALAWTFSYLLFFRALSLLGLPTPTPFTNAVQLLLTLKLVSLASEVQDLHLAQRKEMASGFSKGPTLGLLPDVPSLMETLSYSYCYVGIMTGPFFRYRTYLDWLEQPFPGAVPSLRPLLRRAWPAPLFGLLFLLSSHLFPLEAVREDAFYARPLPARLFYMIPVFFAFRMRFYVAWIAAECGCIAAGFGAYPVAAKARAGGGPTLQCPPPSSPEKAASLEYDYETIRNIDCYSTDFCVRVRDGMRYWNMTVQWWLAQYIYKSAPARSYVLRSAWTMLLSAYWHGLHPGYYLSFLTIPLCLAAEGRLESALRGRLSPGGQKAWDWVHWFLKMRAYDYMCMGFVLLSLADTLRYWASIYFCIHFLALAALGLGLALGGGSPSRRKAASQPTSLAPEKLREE
UniProt Q96N46: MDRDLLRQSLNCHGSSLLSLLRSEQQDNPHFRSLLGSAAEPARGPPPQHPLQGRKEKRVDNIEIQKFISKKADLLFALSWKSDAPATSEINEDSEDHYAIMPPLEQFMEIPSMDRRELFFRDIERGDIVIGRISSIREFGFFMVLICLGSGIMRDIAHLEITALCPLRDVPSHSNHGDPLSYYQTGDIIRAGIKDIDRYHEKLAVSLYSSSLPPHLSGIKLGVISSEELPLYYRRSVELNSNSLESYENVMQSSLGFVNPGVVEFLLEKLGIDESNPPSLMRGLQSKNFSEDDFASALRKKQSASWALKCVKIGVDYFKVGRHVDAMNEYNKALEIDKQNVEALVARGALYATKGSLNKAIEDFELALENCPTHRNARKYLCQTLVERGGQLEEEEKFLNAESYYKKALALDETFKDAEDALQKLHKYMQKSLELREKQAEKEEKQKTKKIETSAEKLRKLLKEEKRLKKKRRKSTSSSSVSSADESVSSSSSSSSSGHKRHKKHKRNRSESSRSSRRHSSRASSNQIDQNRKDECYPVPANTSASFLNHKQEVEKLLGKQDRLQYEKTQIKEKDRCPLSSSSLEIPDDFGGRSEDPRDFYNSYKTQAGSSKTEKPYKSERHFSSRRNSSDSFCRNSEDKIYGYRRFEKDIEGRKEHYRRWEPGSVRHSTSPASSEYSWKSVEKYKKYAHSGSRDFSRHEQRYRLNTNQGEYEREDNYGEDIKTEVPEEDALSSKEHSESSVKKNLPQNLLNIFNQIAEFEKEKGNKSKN
UniProt Q96L93: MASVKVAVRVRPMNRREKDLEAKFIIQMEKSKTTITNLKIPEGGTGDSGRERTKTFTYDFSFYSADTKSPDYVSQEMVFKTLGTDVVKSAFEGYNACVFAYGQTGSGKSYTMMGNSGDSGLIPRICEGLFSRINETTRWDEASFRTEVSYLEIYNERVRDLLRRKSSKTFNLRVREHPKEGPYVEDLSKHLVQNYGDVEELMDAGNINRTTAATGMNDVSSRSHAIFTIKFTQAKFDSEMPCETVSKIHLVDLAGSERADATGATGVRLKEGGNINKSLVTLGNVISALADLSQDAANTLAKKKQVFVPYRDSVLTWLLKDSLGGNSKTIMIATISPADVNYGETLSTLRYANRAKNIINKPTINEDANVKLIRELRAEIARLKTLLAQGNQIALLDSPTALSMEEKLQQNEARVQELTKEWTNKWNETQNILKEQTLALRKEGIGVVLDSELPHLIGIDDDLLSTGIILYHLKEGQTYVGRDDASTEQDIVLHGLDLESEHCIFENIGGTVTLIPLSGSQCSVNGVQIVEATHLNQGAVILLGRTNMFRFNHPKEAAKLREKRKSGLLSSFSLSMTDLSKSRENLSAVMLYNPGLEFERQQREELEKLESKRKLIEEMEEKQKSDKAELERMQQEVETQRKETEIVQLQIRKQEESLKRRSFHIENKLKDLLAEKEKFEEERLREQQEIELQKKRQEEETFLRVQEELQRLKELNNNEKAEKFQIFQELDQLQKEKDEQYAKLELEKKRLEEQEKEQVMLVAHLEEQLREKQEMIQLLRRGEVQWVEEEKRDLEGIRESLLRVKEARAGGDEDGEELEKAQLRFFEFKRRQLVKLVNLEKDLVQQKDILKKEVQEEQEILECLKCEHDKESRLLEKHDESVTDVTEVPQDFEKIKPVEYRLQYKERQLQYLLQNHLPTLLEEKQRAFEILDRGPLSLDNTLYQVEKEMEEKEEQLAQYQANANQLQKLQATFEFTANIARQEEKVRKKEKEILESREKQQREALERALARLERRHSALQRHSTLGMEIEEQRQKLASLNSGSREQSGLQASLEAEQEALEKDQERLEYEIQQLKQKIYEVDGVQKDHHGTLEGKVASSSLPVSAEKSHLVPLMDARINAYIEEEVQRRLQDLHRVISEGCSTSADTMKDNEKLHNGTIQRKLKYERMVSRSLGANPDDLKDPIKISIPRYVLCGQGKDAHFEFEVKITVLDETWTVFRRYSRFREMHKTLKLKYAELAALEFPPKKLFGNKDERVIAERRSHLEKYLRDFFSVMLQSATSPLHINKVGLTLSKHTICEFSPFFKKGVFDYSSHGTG
UniProt Q96D53: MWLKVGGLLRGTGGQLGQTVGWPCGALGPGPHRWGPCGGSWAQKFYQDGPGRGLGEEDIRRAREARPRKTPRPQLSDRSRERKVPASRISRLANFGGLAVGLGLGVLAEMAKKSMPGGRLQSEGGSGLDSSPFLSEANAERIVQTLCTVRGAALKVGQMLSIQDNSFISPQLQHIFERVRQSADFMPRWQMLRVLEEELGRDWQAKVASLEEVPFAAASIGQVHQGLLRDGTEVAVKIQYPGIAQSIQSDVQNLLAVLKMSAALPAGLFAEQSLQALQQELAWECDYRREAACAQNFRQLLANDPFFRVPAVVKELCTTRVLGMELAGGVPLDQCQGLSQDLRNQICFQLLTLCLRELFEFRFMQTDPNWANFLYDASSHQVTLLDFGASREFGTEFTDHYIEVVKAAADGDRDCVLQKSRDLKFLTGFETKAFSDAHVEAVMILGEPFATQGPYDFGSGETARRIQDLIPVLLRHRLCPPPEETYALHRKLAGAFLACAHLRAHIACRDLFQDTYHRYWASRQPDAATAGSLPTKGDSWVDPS
UniProt Q96I59: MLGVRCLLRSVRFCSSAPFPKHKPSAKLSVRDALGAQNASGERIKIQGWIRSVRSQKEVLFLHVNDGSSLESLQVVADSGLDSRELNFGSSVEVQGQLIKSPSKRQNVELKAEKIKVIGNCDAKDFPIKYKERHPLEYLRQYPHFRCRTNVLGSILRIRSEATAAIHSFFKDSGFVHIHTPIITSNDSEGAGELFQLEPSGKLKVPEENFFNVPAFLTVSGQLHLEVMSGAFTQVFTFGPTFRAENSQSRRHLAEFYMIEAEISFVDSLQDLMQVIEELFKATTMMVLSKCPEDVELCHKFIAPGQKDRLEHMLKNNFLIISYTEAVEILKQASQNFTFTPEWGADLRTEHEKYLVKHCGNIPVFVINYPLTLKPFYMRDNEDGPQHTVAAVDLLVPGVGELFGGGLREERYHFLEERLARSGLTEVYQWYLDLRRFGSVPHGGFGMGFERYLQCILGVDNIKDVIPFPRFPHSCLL

Compound: Nc1ncnc2c1ncn2[C@@H]1O[C@H](COP(=O)(O)OP(=O)(O)NP(=O)(O)O)[C@@H](O)[C@H]1O [adenylyl imidodiphosphate]
Experiment: NP40-soluble protein abundance relative to vehicle (solubility fold change) (ratio); higher = more soluble protein in presence of AMP-PNP
How it was run: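 Data come from three independent experiments in which Dounce-homogenised Jurkat crude lysate was treated at eight concentrations from 0.1 to 10 mM. Treatment ran 10 min at room temperature and then 3 min at 37 °C, after which 0.8% NP40 and benzonase were added for 60 min at 4 °C before ultracentrifugation. The supernatant underwent TMT labelling and LC-MS/MS, and vsn-normalised intensities were expressed as fold change against the detergent-processed vehicle in each replicate.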

| Target | NP40-soluble protein abundance (concentration: 1mM) | NP40-soluble protein abundance (concentration: 2mM) | NP40-soluble protein abundance (concentration: 4mM) | NP40-soluble protein abundance (concentration: 6mM) | NP40-soluble protein abundance (concentration: 8mM) | NP40-soluble protein abundance (concentration: 10mM) |
| --- | --- | --- | --- | --- | --- | --- |
| PUS7 (UniProt Q96PZ0) | 1.03 ± 0.035 | 1.002 ± 0.0077 | 1.04 ± 0.019 | 1.008 ± 0.009 | 1.01 ± 0.015 | 1.01 ± 0.028 |
| GNPNAT1 (UniProt Q96EK6) | 1.06 ± 0.029 | 1 ± 0.051 | 1.04 ± 0.026 | 1.01 ± 0.035 | 1.03 ± 0.015 | 1.02 ± 0.045 |
| ITFG2 (UniProt Q969R8) | 0.97 ± 0.03 | 0.981 ± 0.032 | 0.967 ± 0.0066 | 0.981 ± 0.043 | 0.979 ± 0.051 | 0.976 ± 0.024 |
| UniProt Q96GC9 | 0.998 ± 0.034 | 1.01 ± 0.045 | 1.008 ± 0.006 | 0.97552 ± 0.00086 | 0.962 ± 0.021 | 0.9707 ± 0.0025 |
| OPTN (UniProt Q96CV9) | 1.01 ± 0.023 | 1.05 ± 0.049 | 1.02 ± 0.02 | 0.978 ± 0.026 | 0.963 ± 0.025 | 0.965 ± 0.039 |
| UniProt Q96D71 and related entries | 1 ± 0.022 | 1.03 ± 0.041 | 1.02 ± 0.025 | 1.05 ± 0.042 | 1.05 ± 0.04 | 1.09 ± 0.043 |
| UniProt Q96BY6 and related entries | 0.972 ± 0.024 | 0.935 ± 0.096 | 1 ± 0.015 | 0.966 ± 0.021 | 0.969 ± 0.013 | 0.945 ± 0.036 |
| VPS35 (UniProt Q96QK1) | 0.975 ± 0.062 | 0.92 ± 0.043 | 0.981 ± 0.054 | 0.974 ± 0.067 | 1 ± 0.079 | 0.96 ± 0.057 |
| UniProt Q96JG6 | 0.991 ± 0.034 | 0.988 ± 0.019 | 0.987 ± 0.014 | 0.9941 ± 0.0023 | 0.9741 ± 0.0084 | 0.978 ± 0.026 |
| NTAN1 (UniProt Q96AB6) | 0.9918 ± 0.0098 | 1.004 ± 0.0048 | 1.03 ± 0.029 | 0.983 ± 0.033 | 0.985 ± 0.012 | 0.981 ± 0.015 |
| UniProt Q96B23-2 | 1.03 ± 0.058 | 1.06 ± 0.072 | 1.02 ± 0.024 | 1.01 ± 0.0076 | 0.977 ± 0.012 | 1.02 ± 0.021 |
| UniProt Q96BN8 | 1 ± 0.027 | 0.936 ± 0.028 | 0.981 ± 0.03 | 0.991 ± 0.042 | 0.996 ± 0.023 | 0.972 ± 0.021 |
| COG8 (UniProt Q96MW5) | 0.943 ± 0.019 | 0.937 ± 0.016 | 0.971 ± 0.023 | 0.977 ± 0.022 | 0.961 ± 0.029 | 0.951 ± 0.04 |
| UniProt Q969U7 and related entries | 0.961 ± 0.027 | 0.982 ± 0.042 | 0.974 ± 0.062 | 0.951 ± 0.033 | 0.934 ± 0.043 | 0.913 ± 0.069 |
| PTCD3 (UniProt Q96EY7) | 0.98 ± 0.066 | 0.958 ± 0.062 | 0.934 ± 0.12 | 0.928 ± 0.12 | 0.936 ± 0.12 | 0.941 ± 0.18 |
| ZFR (UniProt Q96KR1) | 1.05 ± 0.086 | 1.06 ± 0.058 | 1.06 ± 0.089 | 1.05 ± 0.14 | 1.05 ± 0.11 | 1.09 ± 0.12 |
| UniProt Q96N66 and related entries | 0.964 ± 0.022 | 0.908 ± 0.071 | 0.968 ± 0.026 | 0.964 ± 0.049 | 1 ± 0.023 | 0.939 ± 0.042 |
| PGM2 (UniProt Q96G03) | 0.958 ± 0.028 | 0.871 ± 0.082 | 0.929 ± 0.027 | 0.977 ± 0.05 | 1 ± 0.022 | 0.941 ± 0.029 |
| UniProt Q96N46 and related entries | 1.02 ± 0.019 | 1.04 ± 0.045 | 1.04 ± 0.022 | 1.0622 ± 0.00014 | 1.05 ± 0.017 | 1.07 ± 0.014 |
| COG3 (UniProt Q96JB2) | 0.979 ± 0.028 | 0.999 ± 0.02 | 0.994 ± 0.035 | 0.948 ± 0.033 | 0.951 ± 0.04 | 0.954 ± 0.024 |
| MUL1 (UniProt Q969V5) | 1.01 ± 0.016 | 1.03 ± 0.068 | 1.04 ± 0.071 | 1.01 ± 0.042 | 1.01 ± 0.06 | 1.03 ± 0.06 |
| UniProt Q96EZ8 and related entries | 1.02 ± 0.014 | 0.991 ± 0.0078 | 1.04 ± 0.015 | 1.06 ± 0.018 | 1.06 ± 0.061 | 1.1 ± 0.053 |
| UniProt Q93084-2 | 1.03 ± 0.021 | 0.99 ± 0.026 | 1.04 ± 0.033 | 1.02 ± 0.044 | 1.02 ± 0.032 | 1.01 ± 0.018 |
| UniProt Q969X5 and related entries | 0.93 ± 0.054 | 0.829 ± 0.078 | 0.87 ± 0.045 | 0.915 ± 0.081 | 0.935 ± 0.036 | 0.903 ± 0.041 |
| UniProt Q96L93 and related entries | 0.999 ± 0.034 | 0.99 ± 0.041 | 1.01 ± 0.058 | 0.958 ± 0.025 | 0.966 ± 0.018 | 0.991 ± 0.049 |
| UniProt Q96D53 | 0.973 ± 0.012 | 0.923 ± 0.039 | 0.952 ± 0.022 | 0.9446 ± 0.009 | 0.962 ± 0.038 | 0.958 ± 0.033 |
| UniProt Q96NC0 | 1.04 ± 0.029 | 1.08 ± 0.13 | 1.08 ± 0.094 | 1.18 ± 0.1 | 1.15 ± 0.082 | 1.25 ± 0.1 |
| NARS2 (UniProt Q96I59) | 0.955 ± 0.032 | 0.904 ± 0.033 | 0.927 ± 0.036 | 1 ± 0.048 | 1 ± 0.011 | 0.963 ± 0.066 |
| UniProt Q969N2 and related entries | 0.935 ± 0.077 | 0.917 ± 0.032 | 0.956 ± 0.032 | 1.01 ± 0.06 | 0.986 ± 0.071 | 1.02 ± 0.049 |
| CUL5 (UniProt Q93034) | 0.974 ± 0.033 | 0.913 ± 0.085 | 0.9849 ± 0.0057 | 0.959 ± 0.015 | 0.979 ± 0.017 | 0.933 ± 0.038 |

Limited to NP40-soluble protein abundance (concentration: 1mM), NP40-soluble protein abundance (concentration: 4mM) and NP40-soluble protein abundance (concentration: 2mM) (two entries from above):

| Target | NP40-soluble protein abundance (concentration: 1mM) | NP40-soluble protein abundance (concentration: 4mM) | NP40-soluble protein abundance (concentration: 2mM) |
| --- | --- | --- | --- |
| MUL1 (UniProt Q969V5) | 1.01 ± 0.016 | 1.04 ± 0.071 | 1.03 ± 0.068 |
| UniProt Q96EZ8 and related entries | 1.02 ± 0.014 | 1.04 ± 0.015 | 0.991 ± 0.0078 |
